Source: PubChem BioAssay AID248 (DTP/NCI, 2004)
The list is a part of this screen's results and no random one: it is rich in T/C values a quarter to a half above the control, in often repeated tests (any T/C) and in doses without a T/C. Other doses and runs of a compound stand elsewhere. T/C: endpoint of the treated group in % of that of the vehicle group. Some entries give survivors of the animals treated and no T/C: the source files T/C as zero there, which appears to mark a toxic dose or a test without result, not a measured value. Some doses without a T/C left all or most animals alive at the check, yet need not have been tolerated: the source hardly ever lists a survival T/C far under the control, and the zero likely stands for such cases as well. Counts of survivors are from the toxicity check (mostly the fifth day) where no day follows; animals may have died later. Schedule codes are those of the source, read here as Q, the interval in days (D) or hours (H), X, the number of doses. Some schedule codes hold Z or #, which are not explained here. Where survival is the endpoint, the PubChem record calls one and a half times the control and up active, and a quarter to a half above the control has no call in these data; cut-offs in other NCI protocols can differ.

Tested on: L1210 leukemia ip in BDF1 mice, survival T/C
Assay: NCI In Vivo Anticancer Drug Screen. Data for tumor model L1210 Leukemia (intraperitoneal) in B6D2F1 (BDF1) mice
Details: higher T/C = longer survival
[1] = T/C endpoint: mean survival time, dose: 200.0 mg/kg/injection, schedule: Q01DX001 (ip), vehicle: saline
[2] = T/C endpoint: mean survival time, dose: 400.0 mg/kg/injection, schedule: Q01DX001 (ip), vehicle: saline
[3] = T/C endpoint: mean survival time, dose: 400.0 mg/kg/injection, schedule: Q04DX003 (ip), vehicle: saline with Tween-80
[4] = T/C endpoint: mean survival time, dose: 200.0 mg/kg/injection, schedule: Q01DX009 (ip), vehicle: Klucel (hydroxypropylcellulose) (HPC)
[5] = T/C endpoint: mean survival time, dose: 400.0 mg/kg/injection, schedule: Q04DX003 (ip), vehicle: Klucel (hydroxypropylcellulose) (HPC)
[6] = T/C endpoint: mean survival time, dose: 300.0 mg/kg/injection, schedule: Q01DX001 (ip), vehicle: saline

## NC(=S)c1cn(C2OC(CO)C(O)C2O)c2ncnc(N)c12 (centres undefined)
T/C endpoint: mean survival time, dose: 1.9 mg/kg/injection, schedule: Q01DX009 (ip), vehicle: carboxymethylcellulose (CMC)
  T/C: 127 % of control
T/C endpoint: mean survival time, dose: 3.0 mg/kg/injection, schedule: Q03HX016 (ip), vehicle: other
  survivor count: 1 of 6
T/C endpoint: mean survival time, dose: 4.0 mg/kg/injection, schedule: Q03HX024 (ip), vehicle: saline
  survivor count: 2 of 6
T/C endpoint: mean survival time, dose: 4.0 mg/kg/injection, schedule: Q04DX003 (ip), vehicle: saline
  T/C: 142 % of control
T/C endpoint: mean survival time, dose: 7.5 mg/kg/injection, schedule: Q01DX009 (ip), vehicle: carboxymethylcellulose (CMC)
  T/C: 127 % of control
T/C endpoint: mean survival time, dose: 7.5 mg/kg/injection, schedule: Q01DX015 (ip), vehicle: saline
  survivor count: 0 of 6
T/C endpoint: mean survival time, dose: 11.3 mg/kg/injection, schedule: Q01DX015 (ip), vehicle: saline
  survivor count: 1 of 6
T/C endpoint: mean survival time, dose: 15.0 mg/kg/injection, schedule: Q01DX009 (ip), vehicle: carboxymethylcellulose (CMC)
  survivor count: 3 of 6
T/C endpoint: mean survival time, dose: 16.0 mg/kg/injection, schedule: Q08DX002 (ip), vehicle: other
  T/C: 134 % of control
T/C endpoint: mean survival time, dose: 17.0 mg/kg/injection, schedule: Q01DX015 (ip), vehicle: saline
  survivor count: 3 of 6
T/C endpoint: mean survival time, dose: 20.0 mg/kg/injection, schedule: Q01DX001 (ip), vehicle: saline
  survivor count: 0 of 4
T/C endpoint: mean survival time, dose: 24.0 mg/kg/injection, schedule: Q08DX002 (ip), vehicle: other
  survivor count: 1 of 6
T/C endpoint: mean survival time, dose: 30.0 mg/kg/injection, schedule: Q01DX001 (ip), vehicle: carboxymethylcellulose (CMC)
  survivor count: 2 of 6
T/C endpoint: mean survival time, dose: 32.0 mg/kg/injection, schedule: Q04DX003 (ip), vehicle: saline
  survivor count: 0 of 6
T/C endpoint: mean survival time, dose: 40.0 mg/kg/injection, schedule: Q01DX001 (ip), vehicle: saline
  survivor count: 0 of 4
T/C endpoint: mean survival time, dose: 80.0 mg/kg/injection, schedule: Q01DX001 (ip), vehicle: saline
  survivor count: 0 of 4

## O=C(CCC(=O)[O][Sn]([c]1ccccc1)([c]1ccccc1)[c]1ccccc1)[O][Sn]([c]1ccccc1)([c]1ccccc1)[c]1ccccc1
T/C endpoint: mean survival time, dose: 6.25 mg/kg/injection, schedule: Q01DX009 (ip), vehicle: saline with Tween-80
  survivor count: 0 of 6
T/C endpoint: mean survival time, dose: 12.5 mg/kg/injection, schedule: Q04DX003 (ip), vehicle: saline with Tween-80
  survivor count: 3 of 6
T/C endpoint: mean survival time, dose: 25.0 mg/kg/injection, schedule: Q04DX003 (ip), vehicle: saline with Tween-80
  survivor count: 4 of 6
T/C endpoint: mean survival time, dose: 50.0 mg/kg/injection, schedule: Q01DX001 (ip), vehicle: saline
  survivor count: 0 of 6
T/C endpoint: mean survival time, dose: 100.0 mg/kg/injection, schedule: Q01DX001 (ip), vehicle: saline
  survivor count: 1 of 6
[1]
  survivor count: 0 of 6
[2]
  survivor count: 0 of 6

## Cc1cc(C)c(C(Cl)(Cl)Cl)c(C)c1Cl
T/C endpoint: mean survival time, dose: 50.0 mg/kg/injection, schedule: Q01DX009 (ip), vehicle: saline with Tween-80
  T/C: 125 % of control
[3]
  survivor count: 4 of 6

## O=c1ccc(=O)c2c(=O)c3ccccc3c(=O)c1=2
[4]
  survivor count: 3 of 6
[5]
  survivor count: 3 of 6

## CC(C)CC(CC(C)C)NC(C)COC(=O)c1ccc(N)cc1 (centres undefined)
T/C endpoint: mean survival time, dose: 150.0 mg/kg/injection, schedule: Q01DX001 (ip), vehicle: saline
  survivor count: 3 of 6
[6]
  survivor count: 0 of 6

## CCOC(=O)CNN
T/C endpoint: mean survival time, dose: 32.0 mg/kg/injection, schedule: Q01DX009 (ip), vehicle: saline
  survivor count: 4 of 6
T/C endpoint: mean survival time, dose: 224.0 mg/kg/injection, schedule: Q01DX001 (ip), vehicle: saline
  survivor count: 0 of 6

## Cc1ccc(C)c(NC(=O)Nc2c(C)n(C)n(-c3ccccc3)c2=O)c1
T/C endpoint: mean survival time, dose: 400.0 mg/kg/injection, schedule: Q01DX009 (ip), vehicle: Klucel (hydroxypropylcellulose) (HPC)
  survivor count: 5 of 6

## CCN1CSC(=S)N(CC)C1
T/C endpoint: mean survival time, dose: 100.0 mg/kg/injection, schedule: Q01DX009 (ip), vehicle: Klucel (hydroxypropylcellulose) (HPC)
  survivor count: 2 of 6

## CCCCCCCCCNC(=O)Nc1cccc(Cl)c1C
T/C endpoint: mean survival time, dose: 400.0 mg/kg/injection, schedule: Q01DX009 (ip), vehicle: saline with Tween-80
  survivor count: 6 of 6

## O=C(O)c1cscc1-c1cccc2ccccc12
[3]
  survivor count: 3 of 6

## C[Se]c1ncnc2c(C3OC(CO)C(O)C3O)[nH]nc12 (centres undefined)
T/C endpoint: mean survival time, dose: 100.0 mg/kg/injection, schedule: Q01DX005 (ip), vehicle: saline
  survivor count: 0 of 6
T/C endpoint: mean survival time, dose: 200.0 mg/kg/injection, schedule: Q01DX005 (ip), vehicle: saline
  survivor count: 0 of 6

## Nc1cc(Cl)ccc1O
[2]
  survivor count: 2 of 4

## O=c1[nH]cnc2ncccc12
[2]
  survivor count: 0 of 6

## COC(=O)C1(C)CCCC2(C)C3CCC4(C)CC3(CCC12)CC4S(=O)(=O)c1ccc(C)cc1 (centres undefined)
T/C endpoint: mean survival time, dose: 100.0 mg/kg/injection, schedule: Q04DX002 (ip), vehicle: Klucel (hydroxypropylcellulose) (HPC)
  survivor count: 3 of 3

## O=S(=O)(N=S(CCCl)CCCl)c1ccccc1
T/C endpoint: mean survival time, dose: 400.0 mg/kg/injection, schedule: Q04DX002 (ip), vehicle: Klucel (hydroxypropylcellulose) (HPC)
  survivor count: 1 of 3

## Cn1c(N)nc2nc[nH]c2c1=S
T/C endpoint: mean survival time, dose: 2.0 mg/kg/injection, schedule: Q01DX Z (ip), vehicle: carboxymethylcellulose (CMC)
  survivor count: 1 of 6
T/C endpoint: mean survival time, dose: 9.0 mg/kg/injection, schedule: Q01DX Z (ip), vehicle: methylcellulose (MC)
  T/C: 131 % of control
T/C endpoint: mean survival time, dose: 40.0 mg/kg/injection, schedule: Q01DX009 (ip), vehicle: saline
  T/C: 138 % of control
T/C endpoint: median survival time, dose: 10.0 mg/kg/injection, schedule: Q01DX009 (ip), vehicle: saline
  T/C: 125 % of control
T/C endpoint: median survival time, dose: 40.0 mg/kg/injection, schedule: Q01DX009 (ip), vehicle: saline
  T/C: 125 % of control

## CC(=O)c1cc(C(C)=O)c2cc(C)cc(O)c2c1O
[1]
  survivor count: 0 of 6
[2]
  survivor count: 0 of 6

## COc1cc2c(cc1[N+](=O)[O-])C(=O)CCCC2
T/C endpoint: mean survival time, dose: 200.0 mg/kg/injection, schedule: Q01DX009 (ip), vehicle: saline with Tween-80
  survivor count: 3 of 3

## CCCCC(CC)COc1ccc(N=C(N)N=C(N)N)cc1 (centres undefined)
T/C endpoint: mean survival time, dose: 200.0 mg/kg/injection, schedule: Q04DX002 (ip), vehicle: saline with Tween-80
  survivor count: 1 of 3
T/C endpoint: mean survival time, dose: 400.0 mg/kg/injection, schedule: Q04DX002 (ip), vehicle: saline with Tween-80
  survivor count: 0 of 3

## Nc1cc(Cl)cc2c1-c1c(Cl)cc(Cl)cc1C2
[4]
  survivor count: 1 of 6

## O=C(CCCCC(=O)OCCBr)OCCBr
T/C endpoint: mean survival time, dose: 100.0 mg/kg/injection, schedule: Q04DX003 (ip), vehicle: Klucel (hydroxypropylcellulose) (HPC)
  survivor count: 3 of 6
[5]
  survivor count: 3 of 6

## O=c1[nH]c2ncccc2c(=O)n1O
[2]
  survivor count: 1 of 4

## CC(C)(CCCl)N(Cc1ccccc1)Cc1ccccc1
T/C endpoint: mean survival time, dose: 400.0 mg/kg/injection, schedule: Q01DX009 (ip), vehicle: saline
  survivor count: 6 of 6

## CCCCCCOP(=O)(N1CC1)N1CC1
[6]
  survivor count: 5 of 6
[2]
  survivor count: 1 of 6
T/C endpoint: mean survival time, dose: 800.0 mg/kg/injection, schedule: Q01DX001 (ip), vehicle: saline
  survivor count: 1 of 6

## CCC[CH2][Sn]1([CH2]CCC)[O]C(=O)c2cccc([N+](=O)[O-])c2C(=O)[O]1
[1]
  survivor count: 1 of 4
[2]
  survivor count: 0 of 4

## NC(N)=N/N=C(/CCC(=O)O)C(=O)O
T/C endpoint: mean survival time, dose: 120.0 mg/kg/injection, schedule: Q01DX Z (oral), vehicle: carboxymethylcellulose (CMC)
  T/C: 130 % of control
T/C endpoint: mean survival time, dose: 240.0 mg/kg/injection, schedule: Q01DX Z (oral), vehicle: carboxymethylcellulose (CMC)
  T/C: 129 % of control
T/C endpoint: mean survival time, dose: 480.0 mg/kg/injection, schedule: Q01DX Z (ip), vehicle: carboxymethylcellulose (CMC)
  survivor count: 6 of 6
T/C endpoint: mean survival time, dose: 480.0 mg/kg/injection, schedule: Q01DX Z (oral), vehicle: carboxymethylcellulose (CMC)
  T/C: 129 % of control

## O=[N+]([O-])c1ccc2c(c1)n([O-])c1ccccc1[n+]2=O
T/C endpoint: mean survival time, dose: 50.0 mg/kg/injection, schedule: Q04DX003 (ip), vehicle: Klucel (hydroxypropylcellulose) (HPC)
  survivor count: 6 of 6
T/C endpoint: mean survival time, dose: 400.0 mg/kg/injection, schedule: Q01DX001 (ip), vehicle: Klucel (hydroxypropylcellulose) (HPC)
  survivor count: 3 of 6

## CN(CCN(C)Cc1ccccc1)Cc1ccccc1
T/C endpoint: mean survival time, dose: 200.0 mg/kg/injection, schedule: Q01DX009 (ip), vehicle: saline
  survivor count: 0 of 6
T/C endpoint: mean survival time, dose: 400.0 mg/kg/injection, schedule: Q04DX003 (ip), vehicle: saline
  survivor count: 0 of 6
